Further values from the same series stand in other lists.
System: colon gene expression
Experiment: RNA-Seq of colonic tissue of germ-free mice treated with 50 mg/kg/d N-methylserotonin
Format: in vivo, germ-free C57BL/6J mice
Settings: colon

In the case of `CNCCc1c[nH]c2ccc(O)cc12` [N-methylserotonin], the log2 fold-change (gene Epsti1) is reported as −0.33, the log2 fold-change (gene Erap1) is reported as −0.34 and the log2 fold-change (gene Eri1) is reported as −0.33. The log2 fold-change (gene Esr1) was 1.09, the log2 fold-change (gene Esyt3) was 3.43 and the log2 fold-change (gene Etfdh) was −0.26. For the same compound, the log2 fold-change (gene Eya2) was 2.05, the log2 fold-change (gene Fads2) was −0.51 and the log2 fold-change (gene Fam53c) was 0.39. For the same compound, the log2 fold-change (gene Fam111a) was −0.47, the log2 fold-change (gene Fam118a) was 0.38 and the log2 fold-change (gene Fam189a2) was 0.32. It also gave a log2 fold-change (gene Fam234b) of 1.49, a log2 fold-change (gene Fbln2) of 0.35 and a log2 fold-change (gene Fchsd1) of 0.90. It also gave a log2 fold-change (gene Fermt1) of −0.30, a log2 fold-change (gene Fgfr1) of 0.39 and a log2 fold-change (gene Fkbp2) of 0.56. It also gave a log2 fold-change (gene Fmo4) of −0.63, a log2 fold-change (gene Fmod) of 1.91 and a log2 fold-change (gene Fnbp1) of 0.46. It also gave a log2 fold-change (gene Folr1) of 2.49, a log2 fold-change (gene Fosb) of −1.42 and a log2 fold-change (gene Frem1) of 0.80. For the same compound, the log2 fold-change (gene Fus) was 0.57, the log2 fold-change (gene Galnt1) was −0.29 and the log2 fold-change (gene Galnt3) was −0.36. The log2 fold-change (gene Gata2) was 5.30, the log2 fold-change (gene Gata3) was 1.59 and the log2 fold-change (gene Gatm) was −0.68. The log2 fold-change (gene Gbp2) was −0.58, the log2 fold-change (gene Gcnt1) was −0.47 and the log2 fold-change (gene Gdpd1) was −0.35. It also gave a log2 fold-change (gene Gfm1) of −0.30, a log2 fold-change (gene Ggh) of −0.80 and a log2 fold-change (gene Glb1l2) of 1.79. The log2 fold-change (gene Glb1l3) was 10.56, the log2 fold-change (gene Glis3) was 0.51 and the log2 fold-change (gene Gm5431) was −1.03. For the same compound, the log2 fold-change (gene Gm5485) was −0.73, the log2 fold-change (gene Gm9926) was −0.48 and the log2 fold-change (gene Gm24119) was −1.43. It also gave a log2 fold-change (gene Gm25395) of −0.77, a log2 fold-change (gene Gna14) of −0.70 and a log2 fold-change (gene Gnmt) of 3.61. The log2 fold-change (gene Golm1) was −0.32, the log2 fold-change (gene Gpr146) was 0.73 and the log2 fold-change (gene Gprin3) was −0.38. It also gave a log2 fold-change (gene Grhl1) of 1.31, a log2 fold-change (gene Grk3) of 0.37 and a log2 fold-change (gene Gsdmc2) of −0.47. It also gave a log2 fold-change (gene Gsdmc3) of −0.80, a log2 fold-change (gene Gsdmc4) of −0.66 and a log2 fold-change (gene Gsto1) of −0.31. The log2 fold-change (gene Gstp2) was −0.58, the log2 fold-change (gene Gxylt2) was 1.98 and the log2 fold-change (gene H1f2) was −0.32. For the same compound, the log2 fold-change (gene H1f3) was −0.45, the log2 fold-change (gene H1f4) was −0.36 and the log2 fold-change (gene H2bc8) was −0.45. It also gave a log2 fold-change (gene H2bc14) of −0.69, a log2 fold-change (gene H3c1) of −0.50 and a log2 fold-change (gene H3c2) of −0.50. For the same compound, the log2 fold-change (gene H3c4) was −0.69, the log2 fold-change (gene H4c6) was −0.56 and the log2 fold-change (gene H4c14) was −0.43. For the same compound, the log2 fold-change (gene Hadha) was −0.30, the log2 fold-change (gene Hao2) was −0.52 and the log2 fold-change (gene Hapln4) was 3.45. The log2 fold-change (gene Hdgfl2) was 0.36, the log2 fold-change (gene Heph) was −0.27 and the log2 fold-change (gene Hexa) was −0.26. For the same compound, the log2 fold-change (gene Hexb) was −0.82, the log2 fold-change (gene Hlf) was 1.26 and the log2 fold-change (gene Hmcn1) was −0.39. The log2 fold-change (gene Hmcn2) was 0.39, the log2 fold-change (gene Hsd17b12) was −0.33 and the log2 fold-change (gene Hsp90aa1) was −0.38. For the same compound, the log2 fold-change (gene Hspa1a) was −0.75, the log2 fold-change (gene Hspa8) was −0.32 and the log2 fold-change (gene Hspb7) was 0.62. The log2 fold-change (gene Ifi30) was −0.28, the log2 fold-change (gene Ifih1) was −0.29 and the log2 fold-change (gene Ifit1) was −0.65. For the same compound, the log2 fold-change (gene Ifit1bl1) was −0.82, the log2 fold-change (gene Igdcc4) was 0.39 and the log2 fold-change (gene Igf1r) was 0.45. It also gave a log2 fold-change (gene Igfbp2) of 0.75, a log2 fold-change (gene Igfbp6) of 0.81 and a log2 fold-change (gene Ighj1) of −1.59. The log2 fold-change (gene Ighv1-78) was −0.11, the log2 fold-change (gene Igkv3-7) was −0.12 and the log2 fold-change (gene Igkv4-59) was −1.18. It also gave a log2 fold-change (gene Igkv5-48) of −0.03, a log2 fold-change (gene Igkv6-17) of −2.05 and a log2 fold-change (gene Igkv9-120) of −0.05. It also gave a log2 fold-change (gene Igkv14-100) of −0.05, a log2 fold-change (gene Igkv15-103) of −0.07 and a log2 fold-change (gene Igkv16-104) of −0.04. For the same compound, the log2 fold-change (gene Il18) was −0.86, the log2 fold-change (gene Inpp4b) was −0.52 and the log2 fold-change (gene Insl5) was −0.71. The log2 fold-change (gene Ipo13) was 0.44, the log2 fold-change (gene Iqsec2) was 0.41 and the log2 fold-change (gene Itgb6) was −0.29. It also gave a log2 fold-change (gene Itih2) of −0.84, a log2 fold-change (gene Itih5) of −0.43 and a log2 fold-change (gene Itpkb) of 0.31. It also gave a log2 fold-change (gene Itpripl1) of 0.78, a log2 fold-change (gene Iyd) of −0.45 and a log2 fold-change (gene Kcnh3) of 0.47. The log2 fold-change (gene Kif2c) was −0.47, the log2 fold-change (gene Kif4) was −0.54 and the log2 fold-change (gene Kif11) was −0.37. For the same compound, the log2 fold-change (gene Kitl) was −0.36, the log2 fold-change (gene Klb) was −0.57 and the log2 fold-change (gene Klf15) was 1.38. It also gave a log2 fold-change (gene Klhl21) of 0.38, a log2 fold-change (gene Klk1) of −0.44 and a log2 fold-change (gene Knl1) of −0.42. For the same compound, the log2 fold-change (gene Kpna2) was −0.30, the log2 fold-change (gene Krt5) was 6.22 and the log2 fold-change (gene Lama3) was −0.38. For the same compound, the log2 fold-change (gene Lama5) was 0.51, the log2 fold-change (gene Lamb2) was 0.47 and the log2 fold-change (gene Laptm4b) was −0.36. The log2 fold-change (gene Lbr) was −0.29, the log2 fold-change (gene Lgr4) was −0.29 and the log2 fold-change (gene Lmbrd1) was −0.25. For the same compound, the log2 fold-change (gene Lmcd1) was 1.45, the log2 fold-change (gene Lmo3) was 2.43 and the log2 fold-change (gene Lmod1) was 0.30. The log2 fold-change (gene Lpin1) was 0.43, the log2 fold-change (gene Lrrc19) was −0.42 and the log2 fold-change (gene Lrrn1) was 1.45. It also gave a log2 fold-change (gene Ltbp3) of 0.48, a log2 fold-change (gene Ltbp4) of 0.37 and a log2 fold-change (gene Ly6a) of −0.72. The log2 fold-change (gene Ly6g2) was −0.85, the log2 fold-change (gene Ly75) was −0.46 and the log2 fold-change (gene Lypd8) was −0.64. The log2 fold-change (gene Maged1) was 0.34, the log2 fold-change (gene Mal) was 0.85 and the log2 fold-change (gene Malat1) was 0.24. The log2 fold-change (gene Man1a2) was −0.22, the log2 fold-change (gene Maob) was −0.38 and the log2 fold-change (gene Mark1) was 0.81. For the same compound, the log2 fold-change (gene Mastl) was −0.53, the log2 fold-change (gene Matn2) was 0.69 and the log2 fold-change (gene Mboat2) was 0.45. The log2 fold-change (gene Mcm5) was −0.38, the log2 fold-change (gene Mcm6) was −0.44 and the log2 fold-change (gene Meis1) was 0.33. The log2 fold-change (gene Melk) was −0.41, the log2 fold-change (gene Mep1b) was −0.57 and the log2 fold-change (gene Mest) was 0.81. For the same compound, the log2 fold-change (gene Mgat4a) was −0.46, the log2 fold-change (gene Micall2) was 0.53 and the log2 fold-change (gene Mier2) was 0.47. For the same compound, the log2 fold-change (gene Mlph) was 0.29, the log2 fold-change (gene Mmp7) was 4.17 and the log2 fold-change (gene Mnt) was 0.76.
